{"sequences": {"note": "Protein sequences, listed by entry. Tags and fused reporters are not part of them. Residues count along the entry.", "UniProt P00747, residues 562-810": "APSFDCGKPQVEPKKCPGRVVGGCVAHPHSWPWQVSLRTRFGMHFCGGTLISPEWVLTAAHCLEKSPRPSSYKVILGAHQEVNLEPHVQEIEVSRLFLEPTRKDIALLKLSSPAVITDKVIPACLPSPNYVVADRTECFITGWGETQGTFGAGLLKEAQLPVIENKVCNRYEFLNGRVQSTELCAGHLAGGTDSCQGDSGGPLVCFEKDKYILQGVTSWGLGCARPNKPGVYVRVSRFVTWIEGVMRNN"}, "source": "patent US20160039943A1", "about": "(TRANSLATIONAL SCIENCES, published 2016)", "binders": {"B1": {"name": "native human α2-antiplasmin (other, UniProt P08697 40-491, looked up)", "chain": "NQEQVSPLTLLKLGNQEPGGQTALKSPPGVCSRDPTPEQTHRLARAMMAFTADLFSLVAQTSTCPNLILSPLSVALALSHLALGAQNHTLQRLQQVLHAGSGPCLPHLLSRLCQDLGPGAFRLAARMYLQKGFPIKEDFLEQSEQLFGAKPVSLTGKQEDDLANINQWVKEATEGKIQEFLSGLPEDTVLLLLNAIHFQGFWRNKFDPSLTQRDSFHLDEQFTVPVEMMQARTYPLRWFLLEQPEIQVAHFPFKNNMSFVVLVPTHFEWNVSQVLANLSWDTLHPPLVWERPTKVRLPKLYLKHQMDLVATLSQLGLQELFQAPDLRGISEQSLVVSGVQHQSTLELSEVGVEAAAATSIAMSRMSLSSFSVNRPFLFFIFEDTTGLPLFVGSVRNPNPSAPRELKEQQDSPGNKDFLQSLKGFPRGDKLFGPDLKLVPPMEEDYPQFGSPK", "modifications": "radioiodinated (125I) in the binding assays", "notes": "mature; Bought native protein; also called native human α2-AP; native α2-AP"}}, "molecular_target": "micro-plasmin (human) (UniProt P00747)", "experiment": "SDS-PAGE and immunoblot under reducing conditions", "note": "No constants are given. Whether binding was seen depends on the method and setting. Some results given as binding are weak or reduced against the parent protein; the word gives no strength."}
{"binder": "B1", "values": [{"measurement": "binding", "result": "binds"}]}
